Experimental data taken from PMC1156946.
Results are given in words; binding and its absence hold for the method and conditions named. For some assays here: In cells and extracts the contact can be indirect. Some entries that bind do so weakly or less than the wild type. Blank lines part the entries; values can stand above or below the molecule they belong to.

The chains behind the UniProt entries cited, without tags or fusion partners. Residues count along the entry.
UniProt P78560, residues 9-95: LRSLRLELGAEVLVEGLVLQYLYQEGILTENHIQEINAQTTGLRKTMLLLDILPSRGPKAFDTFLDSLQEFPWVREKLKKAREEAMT
UniProt P55211, residues 1-111: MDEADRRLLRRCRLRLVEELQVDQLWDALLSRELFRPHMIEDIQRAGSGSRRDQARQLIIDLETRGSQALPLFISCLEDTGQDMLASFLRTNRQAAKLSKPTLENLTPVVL
UniProt O14727, residues 1-108: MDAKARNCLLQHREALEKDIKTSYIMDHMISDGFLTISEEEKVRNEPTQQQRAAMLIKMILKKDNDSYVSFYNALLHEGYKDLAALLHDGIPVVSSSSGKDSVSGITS
UniProt Q9ULZ3, residues 92-195: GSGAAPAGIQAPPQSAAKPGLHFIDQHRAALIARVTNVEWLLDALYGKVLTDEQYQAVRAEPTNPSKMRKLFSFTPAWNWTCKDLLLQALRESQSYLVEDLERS
UniProt Q9Y2G2, residues 447-537: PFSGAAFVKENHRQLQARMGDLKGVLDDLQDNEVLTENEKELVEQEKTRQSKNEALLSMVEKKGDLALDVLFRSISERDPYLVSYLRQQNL

How the values were obtained:
[1] = target: T1, BCL10 (cellular homolog of the equine herpesvirus-2 E10 gene containing an amino-terminal caspase recruitment domain) CARD domain (residues 1-104) (human) (UniProt O95999); test: pull-down; co-expression in E. coli BL21(DE3) of a pET-28b (His) and a pGEX-2T (GST) construct; lysate in 50 mM Tris pH 8.0, 100 mM NaCl; Ni-NTA capture of the His-tagged protein, imidazole elution, SDS-PAGE with silver stain; both directions tested
T1 sequence: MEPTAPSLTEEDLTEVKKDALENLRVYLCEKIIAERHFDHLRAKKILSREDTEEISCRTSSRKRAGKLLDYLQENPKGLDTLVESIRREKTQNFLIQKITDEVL

[2] = target: T1, BCL10 (cellular homolog of the equine herpesvirus-2 E10 gene containing an amino-terminal caspase recruitment domain) CARD domain (residues 1-104) (human); test: native gel or EMSA; native binding assay: equal amounts of purified His-tagged proteins incubated overnight at 4°C in 50 mM Tris, 100 mM NaCl, pH 8.0; continuous non-denaturing 10% PAGE, Coomassie blue staining; both purified
[3] = target: T2, NAC (apoptotic protein containing a nucleotide binding domain and a CARD domain) CARD domain (residues 1373-1473) (human) (UniProt Q9C000); test: pull-down; co-expression in E. coli BL21(DE3) of a pET-28b (His) and a pGEX-2T (GST) construct; lysate in 50 mM Tris pH 8.0, 100 mM NaCl; Ni-NTA capture of the His-tagged protein, imidazole elution, SDS-PAGE with silver stain; both directions tested
T2 sequence: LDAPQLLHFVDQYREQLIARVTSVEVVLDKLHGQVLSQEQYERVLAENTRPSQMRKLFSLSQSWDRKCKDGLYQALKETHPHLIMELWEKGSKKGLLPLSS

[4] = target: Receptor-Interacting Protein (RIP)-Associated protein with a Death domain (RAIDD) CARD domain (residues 9-95) (human) (UniProt P78560); test: as above
[5] = target: Receptor-Interacting Protein (RIP)-Associated protein with a Death domain (RAIDD) CARD domain (residues 9-95) (human) (UniProt P78560); test: co-IP; lysates of co-expressing E. coli immunoprecipitated with anti-6xHis or anti-GST antibody; western blot with anti-GST and anti-6xHis
[6] = target: T2, NAC (apoptotic protein containing a nucleotide binding domain and a CARD domain) CARD domain (residues 1373-1473) (human); test: co-IP; equal amounts of E. coli recombinant proteins incubated in 50 uL rabbit reticulocyte lysate (Promega) at 4°C for 1 hour; immunoprecipitation with anti-6xHis, western blot with anti-GST
[7] = target: caspase-9 CARD domain (residues 1-111) (human) (UniProt P55211); test: pull-down; co-expression in E. coli BL21(DE3) of a pET-28b (His) and a pGEX-2T (GST) construct; lysate in 50 mM Tris pH 8.0, 100 mM NaCl; Ni-NTA capture of the His-tagged protein, imidazole elution, SDS-PAGE with silver stain; both directions tested
[8] = target: caspase-9 CARD domain (residues 1-111) (human) (UniProt P55211); test: native gel or EMSA; induced denaturation-renaturation: equal amounts of purified proteins dialysed together against 8 M urea buffer, then renaturation buffer (2 M urea, 2 mM MgCl2, 5% glycerol) and binding buffer; continuous non-denaturing 10% PAGE, Coomassie blue staining; both purified
[9] = target: Apoptotic Protein Activating Factor-1 (Apaf-1) CARD domain (residues 1-108) (human) (UniProt O14727); test: pull-down; co-expression in E. coli BL21(DE3) of a pET-28b (His) and a pGEX-2T (GST) construct; lysate in 50 mM Tris pH 8.0, 100 mM NaCl; Ni-NTA capture of the His-tagged protein, imidazole elution, SDS-PAGE with silver stain; both directions tested
[10] = target: Apoptosis-associated Speck-like protein containing a CARD (ASC) CARD domain (residues 92-195) (human) (UniProt Q9ULZ3); test: as above
[11] = target: T3, CLAN (apoptotic protein containing a CARD domain, a Leucine rich repeat domain and a NACHT domain) CARD domain (residues 1-87) (human) (UniProt Q9NPP4); test: as above
T3 sequence: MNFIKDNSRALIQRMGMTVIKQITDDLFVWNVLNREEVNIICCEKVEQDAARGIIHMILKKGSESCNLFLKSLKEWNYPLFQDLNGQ

[12] = target: Apoptosis-associated Speck-like protein containing a CARD (ASC) CARD domain (residues 92-195) (human) (UniProt Q9ULZ3); test: native gel or EMSA; native binding assay: equal amounts of purified His-tagged proteins incubated overnight at 4°C in 50 mM Tris, 100 mM NaCl, pH 8.0; continuous non-denaturing 10% PAGE, Coomassie blue staining; both purified
[13] = target: T2, NAC (apoptotic protein containing a nucleotide binding domain and a CARD domain) CARD domain (residues 1373-1473) (human); test: co-IP; lysates of co-expressing E. coli immunoprecipitated with anti-6xHis or anti-GST antibody; western blot with anti-GST and anti-6xHis
[14] = target: Apoptotic Protein Activating Factor-1 (Apaf-1) CARD domain (residues 1-108) (human) (UniProt O14727); test: native gel or EMSA; induced denaturation-renaturation: equal amounts of purified proteins dialysed together against 8 M urea buffer, then renaturation buffer (2 M urea, 2 mM MgCl2, 5% glycerol) and binding buffer; continuous non-denaturing 10% PAGE, Coomassie blue staining; both purified
[15] = target: T3, CLAN (apoptotic protein containing a CARD domain, a Leucine rich repeat domain and a NACHT domain) CARD domain (residues 1-87) (human); test: as above
[16] = target: CARD9 CARD domain (residues 14-100) (human) (UniProt Q9H257); test: pull-down; co-expression in E. coli BL21(DE3) of a pET-28b (His) and a pGEX-2T (GST) construct; lysate in 50 mM Tris pH 8.0, 100 mM NaCl; Ni-NTA capture of the His-tagged protein, imidazole elution, SDS-PAGE with silver stain; both directions tested
[17] = target: CARD9 CARD domain (residues 14-100) (human) (UniProt Q9H257); test: co-IP; lysates of co-expressing E. coli immunoprecipitated with anti-6xHis or anti-GST antibody; western blot with anti-GST and anti-6xHis
[18] = target: Receptor-Interacting Protein (RIP)-Associated protein with a Death domain (RAIDD) CARD domain (residues 9-95) (human) (UniProt P78560); test: co-IP; equal amounts of E. coli recombinant proteins incubated in 50 uL rabbit reticulocyte lysate (Promega) at 4°C for 1 hour; immunoprecipitation with anti-6xHis, western blot with anti-GST
[19] = target: Apoptosis-associated Speck-like protein containing a CARD (ASC) CARD domain (residues 92-195) (human) (UniProt Q9ULZ3); test: as above

Molecule: Apoptosis-associated Speck-like protein containing a CARD (ASC) CARD domain (residues 92-195) (from UniProt Q9ULZ3 92-195) (domain or fragment)
binding [1]: binds
binding [2]: binds

Molecule: Receptor-Interacting Protein (RIP)-Associated protein with a Death domain (RAIDD) CARD domain (residues 9-95) (from UniProt P78560 9-95) (domain or fragment)
binding [3]: binds
binding [4]: binds
binding [5]: binds
binding [6]: binds

B2: CARD9 CARD domain (residues 14-100) (domain or fragment, UniProt Q9H257 14-100)
chain: LEGFRVTLTSVIDPSRITPYLRQCKVLNPDDEEQVLSDPNLVIRKRKVGVLLDILQRTGHKGYVAFLESLELYYPQLYKKVTGKEPA
binding [4]: binds
binding [16]: binds
binding [17]: binds
binding [18]: binds

B4: CLAN (apoptotic protein containing a CARD domain, a Leucine rich repeat domain and a NACHT domain) CARD domain (residues 1-87) (domain or fragment, UniProt Q9NPP4 1-87)
chain: T3 sequence
binding [10]: binds

The next lines start with the values.

binding [7]: binds
binding [8]: binds
Molecule: Tumor Up-regulated CARD-containing Antagonist of caspase-Nine (TUCAN) CARD domain (residues 341-431) (from UniProt Q9Y2G2-1 341-431) (domain or fragment)

binding [3]: binds
binding [9]: binds
binding [10]: binds
binding [11]: binds
binding [12]: binds
binding [13]: binds
binding [14]: binds
binding [15]: binds
B1: NAC (apoptotic protein containing a nucleotide binding domain and a CARD domain) CARD domain (residues 1373-1473) (domain or fragment, UniProt Q9C000 1373-1473)
chain: T2 sequence

binding [10]: binds
binding [19]: binds
B3: ICEBERG (caspase-1 inhibitor) CARD domain (residues 1-90) (domain or fragment, UniProt P57730 1-90)
chain: MADQLLRKKRRIFIHSVGAGTINALLDCLLEDEVISQEDMNKVRDENDTVMDKARVLIDLVTGKGPKSCCKFIKHLCEEDPQLASKMGLH
